The list does not hold the whole screen: it gathers tests that were run many times, whatever their T/C, doses with no T/C, and many T/C values between a quarter and a half above the control. Other doses and runs of a compound stand elsewhere. T/C: endpoint of the treated group in % of that of the vehicle group. Some entries give survivors of the animals treated and no T/C: the source files T/C as zero there, which appears to mark a toxic dose or a test without result, not a measured value. Some survivor counts are full or nearly so, which does not show that the dose was tolerated: survival well below the control is almost never listed, so the zero probably covers shortened survival too. Survivors were counted at the toxicity check, usually on the fifth day, unless a day is given; later deaths do not show. Schedule codes are those of the source, read here as Q, the interval in days (D) or hours (H), X, the number of doses. Signs of the kind (2×) count equal records among those shown. Some schedules carry Z or #; the key to these is not given. Some structures stand for samples that the source files as different forms (salt, stereo form or complex); doses refer to the form tested. For survival time, this PubChem deposit counts one and a half times the control or more as active, and values a quarter to a half above the control carry no call in these data; other NCI protocols may use other cut-offs. Some entries were tested several times; the values are given in rising order.
Tested on: L1210 leukemia ip in BDF1 mice, survival T/C
Test: NCI In Vivo Anticancer Drug Screen. Data for tumor model L1210 Leukemia (intraperitoneal) in B6D2F1 (BDF1) mice
Settings: T/C endpoint: mean survival time, higher T/C = longer survival
[1] = dose: 200.0 mg/kg/injection, schedule: Q01DX009 (ip), vehicle: saline
[2] = dose: 200.0 mg/kg/injection, schedule: Q04DX003 (ip), vehicle: saline
[3] = dose: 400.0 mg/kg/injection, schedule: Q01DX009 (ip), vehicle: saline
[4] = dose: 300.0 mg/kg/injection, schedule: Q01DX001 (ip), vehicle: saline

## CS(=O)(=O)Nc1ccc(Nc2c3ccccc3nc3cc([N+](=O)[O-])ccc23)cc1
dose: 0.04 mg/kg/injection, schedule: Q01DX009 (ip), vehicle: saline
  T/C: 134 % of control
dose: 0.08 mg/kg/injection, schedule: Q01DX009 (ip), vehicle: saline
  T/C: 128 % of control
dose: 0.24 mg/kg/injection, schedule: Q01DX009 (ip), vehicle: saline
  T/C: 137 % of control
dose: 0.31 mg/kg/injection, schedule: Q01DX009 (ip), vehicle: saline
  T/C: 138 % of control
dose: 0.36 mg/kg/injection, schedule: Q01DX009 (ip), vehicle: saline
  T/C: 142 % of control
dose: 0.55 mg/kg/injection, schedule: Q01DX009 (ip), vehicle: acetone
  T/C: 136 % of control
dose: 0.62 mg/kg/injection, schedule: Q01DX009 (ip), vehicle: saline
  T/C: 127 % of control
dose: 0.9 mg/kg/injection, schedule: Q01DX001 (ip), vehicle: acetone
  T/C: 130 % of control
dose: 1.25 mg/kg/injection, schedule: Q01DX009 (ip), vehicle: saline
  T/C: 129 and 147 % of control
dose: 1.37 mg/kg/injection, schedule: Q01DX001 (ip), vehicle: saline
  T/C: 134 % of control
dose: 2.06 mg/kg/injection, schedule: Q01DX001 (ip), vehicle: saline
  T/C: 145 % of control
dose: 2.5 mg/kg/injection, schedule: Q01DX009 (ip), vehicle: saline
  T/C: 135 % of control
dose: 5.0 mg/kg/injection, schedule: Q01DX009 (ip), vehicle: saline
  T/C: 126 and 143 % of control
dose: 5.0 mg/kg/injection, schedule: Q01DX009 (sc), vehicle: Klucel (hydroxypropylcellulose) (HPC)
  T/C: 132 % of control
dose: 10.0 mg/kg/injection, schedule: Q01DX009 (ip), vehicle: Klucel (hydroxypropylcellulose) (HPC)
  survivor count: 6 of 6
dose: 10.0 mg/kg/injection, schedule: Q01DX009 (ip), vehicle: saline
  survivor count: 6 of 6
dose: 20.0 mg/kg/injection, schedule: Q01DX009 (ip), vehicle: Klucel (hydroxypropylcellulose) (HPC)
  survivor count: 4 of 6
dose: 20.0 mg/kg/injection, schedule: Q01DX009 (ip), vehicle: saline
  survivor count: 6 of 6
dose: 40.0 mg/kg/injection, schedule: Q01DX009 (ip), vehicle: Klucel (hydroxypropylcellulose) (HPC)
  survivor count: 2 of 6
dose: 40.0 mg/kg/injection, schedule: Q01DX009 (ip), vehicle: saline
  survivor count: 6 of 6
dose: 50.0 mg/kg/injection, schedule: Q01DX001 (ip), vehicle: saline
  T/C: 125 % of control
dose: 80.0 mg/kg/injection, schedule: Q01DX009 (ip), vehicle: Klucel (hydroxypropylcellulose) (HPC)
  survivor count: 0 of 6

## CN(C)CC/C=C1\c2ccccc2CN(C)c2ccccc21
dose: 50.0 mg/kg/injection, schedule: Q01DX009 (ip), vehicle: saline with Tween-80
  survivor count: 3 of 5
dose: 100.0 mg/kg/injection, schedule: Q01DX009 (ip), vehicle: saline with Tween-80
  survivor count: 1 of 6
[1]
  survivor count: 0 of 6
dose: 200.0 mg/kg/injection, schedule: Q04DX003 (ip), vehicle: saline with Tween-80
  survivor count: 1 of 4
[2]
  survivor count: 2 of 4
[3]
  survivor count: 0 of 6
dose: 400.0 mg/kg/injection, schedule: Q04DX003 (ip), vehicle: saline with Tween-80
  survivor count: 0 of 4
dose: 400.0 mg/kg/injection, schedule: Q04DX003 (ip), vehicle: saline
  survivor count: 0 of 4

## CN(C)NCCC#N
dose: 150.0 mg/kg/injection, schedule: Q01DX009 (ip), vehicle: saline
  T/C: 133 and 141 % of control
dose: 225.0 mg/kg/injection, schedule: Q01DX009 (ip), vehicle: saline
  survivor count: 6 of 6
dose: 300.0 mg/kg/injection, schedule: Q01DX009 (ip), vehicle: saline
  survivor count: 6 of 6
dose: 400.0 mg/kg/injection, schedule: Q01DX009 (ip), vehicle: saline sonified
  T/C: 127 % of control
dose: 600.0 mg/kg/injection, schedule: Q01DX009 (ip), vehicle: saline
  survivor count: 0 of 6

## O=[N+]([O-])c1cc(C(F)(F)F)cc([N+](=O)[O-])c1N/N=C/c1ccc(F)cc1
dose: 200.0 mg/kg/injection, schedule: Q01DX009 (ip), vehicle: saline with Tween-80
  survivor count: 6 of 6

## CCCC(CCN1CCCC1)(CNC(=O)CN(CC)CC)c1cccc2ccccc12 (stereo not drawn)
dose: 100.0 mg/kg/injection, schedule: Q01DX009 (ip), vehicle: saline
  survivor count: 3 of 5
[1]
  survivor count: 3 of 6
[3]
  survivor count: 0 of 6

## BrCCOc1ccccc1
dose: 400.0 mg/kg/injection, schedule: Q01DX009 (ip), vehicle: other
  survivor count: 2 of 6

## CN(C)CCCNCC(=O)Nc1ccc(S(=O)(=O)c2ccc([N+](=O)[O-])cc2)cc1
[4]
  survivor count: 1 of 6

## CCCCc1c(F)cccc1C(=O)O
dose: 100.0 mg/kg/injection, schedule: Q04DX003 (ip), vehicle: Klucel (hydroxypropylcellulose) (HPC)
  survivor count: 3 of 6
dose: 200.0 mg/kg/injection, schedule: Q04DX003 (ip), vehicle: Klucel (hydroxypropylcellulose) (HPC)
  survivor count: 0 of 6
dose: 400.0 mg/kg/injection, schedule: Q04DX003 (ip), vehicle: Klucel (hydroxypropylcellulose) (HPC)
  survivor count: 2 of 6

## CCOC(=O)N1c2ccc(Cl)cc2C=CC1C#N (stereo not drawn)
dose: 400.0 mg/kg/injection, schedule: Q01DX009 (ip), vehicle: gum acacia
  survivor count: 5 of 6

## C1CCC(NCCNC2CCCCC2)CC1
dose: 150.0 mg/kg/injection, schedule: Q01DX001 (ip), vehicle: saline
  survivor count: 3 of 6
[4]
  survivor count: 1 of 6

## CCS(=O)(=O)c1ccc2nnnn2n1
dose: 50.0 mg/kg/injection, schedule: Q04DX003 (ip), vehicle: saline
  survivor count: 0 of 4
dose: 100.0 mg/kg/injection, schedule: Q04DX003 (ip), vehicle: saline
  survivor count: 0 of 4
[2]
  survivor count: 1 of 4

## O=C(O)CCCCCCCCCCCCCCC(=O)O
dose: 200.0 mg/kg/injection, schedule: Q04DX002 (ip), vehicle: Klucel (hydroxypropylcellulose) (HPC)
  survivor count: 3 of 3

## CCCN=C(N)c1ccc(NC(=O)c2ccc(C(=O)Nc3ccc(C(N)=NCCC)cc3)c(Cl)c2)cc1
dose: 5.0 mg/kg/injection, schedule: Q01DX Z (ip), vehicle: water
  T/C: 130 % of control
dose: 10.0 mg/kg/injection, schedule: Q01DX Z (ip), vehicle: water
  T/C: 125 % of control
dose: 26.0 mg/kg/injection, schedule: Q01DX Z (ip), vehicle: carboxymethylcellulose (CMC)
  survivor count: 5 of 6
dose: 52.0 mg/kg/injection, schedule: Q01DX Z (ip), vehicle: carboxymethylcellulose (CMC)
  survivor count: 0 of 6

## O=NN(CCCl)C(=O)NC1CCC(C(=O)O)CC1 (stereo not drawn)
dose: 6.0 mg/kg/injection, schedule: Q01DX001 (ip), vehicle: saline with Tween-80
  T/C: 139 % of control
dose: 8.7 mg/kg/injection, schedule: Q01DX001 (ip), vehicle: saline with Tween-80
  T/C: 134 % of control
dose: 20.0 mg/kg/injection, schedule: Q01DX001 (ip), vehicle: saline with Tween-80, evaluated on day 5
  T/C: 248 % of control
dose: 20.0 mg/kg/injection, schedule: Q01DX001 (ip), vehicle: saline with Tween-80, evaluated on day 30
  T/C: 248 % of control
dose: 20.0 mg/kg/injection, schedule: Q01DX001 (ip), vehicle: saline with Tween-80, evaluated on day 45
  T/C: 476 % of control
dose: 20.0 mg/kg/injection, schedule: Q01DX001 (ip), vehicle: saline with Tween-80, evaluated on day 60
  T/C: 248 % of control
dose: 30.0 mg/kg/injection, schedule: Q01DX001 (ip), vehicle: saline with Tween-80, evaluated on day 5
  T/C: 481 % of control
dose: 30.0 mg/kg/injection, schedule: Q01DX001 (ip), vehicle: saline with Tween-80, evaluated on day 30
  T/C: 269 % of control
dose: 30.0 mg/kg/injection, schedule: Q01DX001 (ip), vehicle: saline with Tween-80, evaluated on day 45
  T/C: 468 % of control
dose: 30.0 mg/kg/injection, schedule: Q01DX001 (ip), vehicle: saline with Tween-80, evaluated on day 60
  T/C: 481 % of control
dose: 30.0 mg/kg/injection, schedule: Q01DX001 (ip), vehicle: saline with Tween-80
  survivor count: 10 of 10
dose: 139.0 mg/kg/injection, schedule: Q01DX001 (ip), vehicle: saline with Tween-80
  survivor count: 9 of 9
dose: 208.0 mg/kg/injection, schedule: Q01DX001 (ip), vehicle: saline with Tween-80
  survivor count: 9 of 10 (2×)
